Cleaved PARP in drug-treated melanoma cells

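Human melanoma cells were exposed to a pair of drugs for 72 h in 1,536-well plates and read by automated microscopy after fixing and staining. Each value is the cleaved-PARP-positive fraction of nuclei relative to DMSO-treated wells, in %, so that 100 equals the control and higher values mean more apoptosis. Concentrations were fixed for each drug; these are the higher of two levels. The file gives one value for each pair and line, without errors, so small differences may be noise. The marker varies much from line to line, for technical or biological reasons.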 Only some of the drugs and lines screened are listed, without regard to their results. A dash means that no value is listed here.

Compounds and concentrations:
enzastaurin (4 µM): Cn1cc(C2=C(c3cn(C4CCN(Cc5ccccn5)CC4)c4ccccc34)C(=O)NC2=O)c2ccccc21
A-769662 (10 µM): N#Cc1c(O)c2c(-c3ccc(-c4ccccc4O)cc3)csc2[nH]c1=O
dasatinib (0.02 µM): Cc1nc(Nc2ncc(C(=O)Nc3c(C)cccc3Cl)s2)cc(N2CCN(CCO)CC2)n1
SU6656 (2 µM): CN(C)S(=O)(=O)c1ccc2c(c1)/C(=C/c1cc3c([nH]1)CCCC3)C(=O)N2
YM155 (0.002 µM): COCC[n+]1c2c(n(Cc3cnccn3)c1C)C(=O)c1ccccc1C2=O
tozasertib (0.03 µM): Cc1cc(Nc2cc(N3CCN(C)CC3)nc(Sc3ccc(NC(=O)C4CC4)cc3)n2)n[nH]1
JZL184 (5 µM): O=C(Oc1ccc([N+](=O)[O-])cc1)N1CCC(C(O)(c2ccc3c(c2)OCO3)c2ccc3c(c2)OCO3)CC1
stibogluconate (10 µM): O=C(O)[C@@H]1[O][Sb](=[O])([O][Sb]2(=[O])[O][C@H]([C@H](O)CO)[C@H](O)[C@H](C(=O)O)[O]2)[O][C@H]([C@H](O)CO)[C@@H]1O (stereo not given in full)
tamatinib (2 µM): COc1cc(Nc2ncc(F)c(Nc3ccc4c(n3)NC(=O)C(C)(C)O4)n2)cc(OC)c1OC

Pair	SK-MEL-2	SK-MEL-30	COLO 800	IST-MEL1	WM3526	501mel	MZ2-MEL	IPC-298	COLO 792	MeWo	RPMI-7951	WM1716
A-769662 and tozasertib	138	61.2	230	257	53.7	138	394	117	63.7	78.8	101	54.8
A-769662 and YM155	300	334	121	131	491	190	147	98.5	84.9	111	173	491
tozasertib and tamatinib	84.6	85.9	163	222	168	-	227	84.9	831	130	193	159
A-769662 and stibogluconate	127	94.8	243	116	47.7	-	-	308	102	46.2	80.5	55.1
enzastaurin and dasatinib	515	72.9	128	620	211	-	51.3	254	278	98.4	679	166
tozasertib and stibogluconate	134	128	274	115	184	-	139	96.0	146	98.8	124	91.2
stibogluconate and tamatinib	104	57.2	154	273	142	-	63.0	151	353	24.8	202	50.2
stibogluconate and JZL184	135	96.3	98.7	37.3	157	102	167	91.4	48.2	90.8	80.6	64.4
stibogluconate and enzastaurin	133	119	14.3	53.8	83.3	-	53.4	46.1	29.6	106	145	57.9
tozasertib and YM155	291	161	19.4	213	1600	-	927	181	295	419	227	251
YM155 and enzastaurin	590	130	366	116	1770	-	442	172	426	537	762	336
A-769662 and enzastaurin	476	80.3	191	48.6	225	250	29.4	45.2	56.2	121	60.6	120
SU6656 and A-769662	153	162	183	68.1	123	104	62.2	30.0	44.7	56.4	91.4	125
dasatinib and YM155	362	88.1	415	107	1450	-	1480	393	333	283	381	191
enzastaurin and tozasertib	95.7	60.4	363	334	221	-	91.7	147	131	90.0	26.6	388
SU6656 and enzastaurin	114	80.4	212	292	234	-	77.5	123	163	255	303	127
YM155 and tamatinib	767	170	39.3	79.9	1360	-	91.8	179	395	282	670	580
dasatinib and tamatinib	32.1	74.2	100	87.9	274	-	317	28.2	1700	166	595	4390
SU6656 and YM155	-	171	53.3	53.3	631	-	-	76.9	298	179	85.8	160
tamatinib and enzastaurin	679	134	320	748	202	-	302	49.5	240	56.9	2920	4210
stibogluconate and YM155	198	73.4	185	355	852	-	228	115	114	135	149	104
tozasertib and JZL184	116	91.6	307	167	126	118	175	42.4	56.1	275	313	37.3
SU6656 and tozasertib	125	120	396	129	109	-	703	122	250	139	501	36.5
tozasertib and dasatinib	66.5	122	100	193	94.8	-	1020	120	119	314	249	182
JZL184 and YM155	-	391	138	116	2410	-	-	111	833	197	711	130
tamatinib and A-769662	85.7	76.7	165	317	89.7	73.1	110	115	248	16.1	580	125
A-769662 and dasatinib	80.4	125	82.0	60.7	60.6	50.4	99.5	179	137	71.0	175	171
JZL184 and SU6656	76.5	307	78.2	75.3	279	104	227	182	135	287	131	44.2
dasatinib and SU6656	113	110	101	151	142	-	-	87.7	310	93.0	128	667
JZL184 and enzastaurin	652	131	124	157	177	90.8	66.2	81.4	81.6	78.1	212	121

Data from the primary screen of doi:10.1371/journal.pone.0140310, rounded.